Measurements taken from the supplement of paper PMC10849652.
This is one part of the list.

Protein sequences, listed by entry. Tags and fused reporters are not part of them. Lines headed by an entry give the natural chain unless they say otherwise; changes in a name come on top.
UniProt Q96HA8: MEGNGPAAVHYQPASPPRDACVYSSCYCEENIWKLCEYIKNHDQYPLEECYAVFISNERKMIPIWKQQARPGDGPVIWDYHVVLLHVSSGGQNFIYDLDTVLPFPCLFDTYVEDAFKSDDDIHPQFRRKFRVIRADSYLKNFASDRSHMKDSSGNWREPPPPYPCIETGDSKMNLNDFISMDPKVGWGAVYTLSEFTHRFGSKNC
UniProt P17861: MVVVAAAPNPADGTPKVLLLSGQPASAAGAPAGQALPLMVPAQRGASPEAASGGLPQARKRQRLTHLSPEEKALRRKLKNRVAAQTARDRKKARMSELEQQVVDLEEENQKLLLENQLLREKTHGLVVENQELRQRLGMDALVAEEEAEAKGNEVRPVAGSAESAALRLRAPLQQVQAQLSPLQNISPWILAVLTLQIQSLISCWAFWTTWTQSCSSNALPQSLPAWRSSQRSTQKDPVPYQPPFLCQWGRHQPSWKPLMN
UniProt A4UGR9: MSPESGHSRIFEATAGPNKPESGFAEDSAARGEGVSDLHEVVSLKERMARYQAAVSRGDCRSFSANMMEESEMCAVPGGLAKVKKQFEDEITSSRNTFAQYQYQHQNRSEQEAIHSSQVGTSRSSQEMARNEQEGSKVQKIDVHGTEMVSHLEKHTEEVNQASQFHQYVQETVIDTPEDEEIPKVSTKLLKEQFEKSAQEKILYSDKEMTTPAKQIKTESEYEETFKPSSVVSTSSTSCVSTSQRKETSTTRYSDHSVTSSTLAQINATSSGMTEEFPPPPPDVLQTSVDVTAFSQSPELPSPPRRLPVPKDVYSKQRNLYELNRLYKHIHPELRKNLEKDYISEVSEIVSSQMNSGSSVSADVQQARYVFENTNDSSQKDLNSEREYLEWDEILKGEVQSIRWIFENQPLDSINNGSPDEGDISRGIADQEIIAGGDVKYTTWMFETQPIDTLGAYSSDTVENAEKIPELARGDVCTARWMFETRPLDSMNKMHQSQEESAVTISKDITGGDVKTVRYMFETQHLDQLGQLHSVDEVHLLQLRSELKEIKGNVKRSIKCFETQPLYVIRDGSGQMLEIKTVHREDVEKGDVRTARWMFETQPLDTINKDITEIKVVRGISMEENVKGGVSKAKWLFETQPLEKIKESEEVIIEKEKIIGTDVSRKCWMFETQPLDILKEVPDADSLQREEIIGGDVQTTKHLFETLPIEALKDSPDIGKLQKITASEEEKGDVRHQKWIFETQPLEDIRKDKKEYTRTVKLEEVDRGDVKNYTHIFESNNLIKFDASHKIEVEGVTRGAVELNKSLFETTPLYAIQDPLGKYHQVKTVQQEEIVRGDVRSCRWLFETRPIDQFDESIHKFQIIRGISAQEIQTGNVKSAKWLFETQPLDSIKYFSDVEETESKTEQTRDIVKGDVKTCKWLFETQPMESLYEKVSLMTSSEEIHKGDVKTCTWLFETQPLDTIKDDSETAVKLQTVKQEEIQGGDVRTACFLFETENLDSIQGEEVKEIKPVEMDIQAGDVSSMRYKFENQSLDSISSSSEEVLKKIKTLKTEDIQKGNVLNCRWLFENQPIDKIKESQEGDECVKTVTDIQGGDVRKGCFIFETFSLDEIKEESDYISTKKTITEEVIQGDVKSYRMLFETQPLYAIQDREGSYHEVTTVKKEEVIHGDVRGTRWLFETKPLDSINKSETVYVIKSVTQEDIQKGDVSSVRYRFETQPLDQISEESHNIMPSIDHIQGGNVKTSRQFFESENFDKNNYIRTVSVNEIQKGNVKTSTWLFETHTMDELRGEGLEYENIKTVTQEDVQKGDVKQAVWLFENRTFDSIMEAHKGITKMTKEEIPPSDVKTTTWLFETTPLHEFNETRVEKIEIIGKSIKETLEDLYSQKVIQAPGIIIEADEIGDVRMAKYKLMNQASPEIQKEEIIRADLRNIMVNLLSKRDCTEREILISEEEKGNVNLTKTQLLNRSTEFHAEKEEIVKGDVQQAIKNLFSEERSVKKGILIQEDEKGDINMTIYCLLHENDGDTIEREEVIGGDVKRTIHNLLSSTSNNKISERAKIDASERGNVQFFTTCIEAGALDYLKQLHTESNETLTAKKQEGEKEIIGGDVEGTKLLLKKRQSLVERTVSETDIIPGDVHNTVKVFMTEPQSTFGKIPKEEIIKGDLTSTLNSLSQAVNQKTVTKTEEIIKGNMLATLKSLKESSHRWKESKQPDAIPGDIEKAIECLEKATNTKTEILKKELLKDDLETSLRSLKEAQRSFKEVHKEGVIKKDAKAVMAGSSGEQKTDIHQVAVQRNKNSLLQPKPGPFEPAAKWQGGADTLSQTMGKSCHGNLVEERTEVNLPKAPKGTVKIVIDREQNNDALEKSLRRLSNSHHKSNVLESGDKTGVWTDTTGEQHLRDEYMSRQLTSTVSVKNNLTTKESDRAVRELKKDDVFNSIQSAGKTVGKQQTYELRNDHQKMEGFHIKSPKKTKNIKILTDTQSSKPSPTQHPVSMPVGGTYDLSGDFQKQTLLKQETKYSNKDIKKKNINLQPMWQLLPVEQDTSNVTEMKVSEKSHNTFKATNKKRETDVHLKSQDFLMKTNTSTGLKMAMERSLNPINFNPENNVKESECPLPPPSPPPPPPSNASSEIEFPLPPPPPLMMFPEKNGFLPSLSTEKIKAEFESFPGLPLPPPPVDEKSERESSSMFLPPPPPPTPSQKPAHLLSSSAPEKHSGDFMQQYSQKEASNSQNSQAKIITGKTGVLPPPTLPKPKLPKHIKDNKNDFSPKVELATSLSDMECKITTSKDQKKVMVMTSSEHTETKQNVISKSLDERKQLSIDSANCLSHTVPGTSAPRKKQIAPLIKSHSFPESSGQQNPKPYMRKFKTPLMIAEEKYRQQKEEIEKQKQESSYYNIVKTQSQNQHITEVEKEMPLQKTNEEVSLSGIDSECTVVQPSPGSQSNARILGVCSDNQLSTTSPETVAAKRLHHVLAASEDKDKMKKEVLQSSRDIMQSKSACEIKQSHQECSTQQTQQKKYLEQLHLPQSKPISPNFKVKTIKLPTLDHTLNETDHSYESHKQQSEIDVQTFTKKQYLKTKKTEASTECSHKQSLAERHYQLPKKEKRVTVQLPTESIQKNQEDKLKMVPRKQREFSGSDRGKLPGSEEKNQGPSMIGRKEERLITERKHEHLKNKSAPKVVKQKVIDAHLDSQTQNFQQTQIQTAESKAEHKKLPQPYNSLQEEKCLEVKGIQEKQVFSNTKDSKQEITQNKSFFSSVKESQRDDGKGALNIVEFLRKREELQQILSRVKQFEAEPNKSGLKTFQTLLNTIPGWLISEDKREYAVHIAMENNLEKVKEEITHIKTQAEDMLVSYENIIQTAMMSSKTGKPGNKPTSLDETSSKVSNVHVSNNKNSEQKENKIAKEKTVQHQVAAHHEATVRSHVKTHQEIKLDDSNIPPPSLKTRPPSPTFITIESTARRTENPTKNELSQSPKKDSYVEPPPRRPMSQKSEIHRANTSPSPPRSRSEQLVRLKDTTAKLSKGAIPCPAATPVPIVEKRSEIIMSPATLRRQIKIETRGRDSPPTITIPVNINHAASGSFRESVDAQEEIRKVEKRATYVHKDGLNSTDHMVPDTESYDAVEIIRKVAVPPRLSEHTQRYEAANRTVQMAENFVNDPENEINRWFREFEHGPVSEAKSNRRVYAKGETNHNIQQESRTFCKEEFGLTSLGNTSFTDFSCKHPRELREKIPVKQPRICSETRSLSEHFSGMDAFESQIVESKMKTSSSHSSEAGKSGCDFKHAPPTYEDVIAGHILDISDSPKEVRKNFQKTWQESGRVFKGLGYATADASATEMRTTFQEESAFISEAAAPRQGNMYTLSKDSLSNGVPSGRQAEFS
UniProt Q9HCS7: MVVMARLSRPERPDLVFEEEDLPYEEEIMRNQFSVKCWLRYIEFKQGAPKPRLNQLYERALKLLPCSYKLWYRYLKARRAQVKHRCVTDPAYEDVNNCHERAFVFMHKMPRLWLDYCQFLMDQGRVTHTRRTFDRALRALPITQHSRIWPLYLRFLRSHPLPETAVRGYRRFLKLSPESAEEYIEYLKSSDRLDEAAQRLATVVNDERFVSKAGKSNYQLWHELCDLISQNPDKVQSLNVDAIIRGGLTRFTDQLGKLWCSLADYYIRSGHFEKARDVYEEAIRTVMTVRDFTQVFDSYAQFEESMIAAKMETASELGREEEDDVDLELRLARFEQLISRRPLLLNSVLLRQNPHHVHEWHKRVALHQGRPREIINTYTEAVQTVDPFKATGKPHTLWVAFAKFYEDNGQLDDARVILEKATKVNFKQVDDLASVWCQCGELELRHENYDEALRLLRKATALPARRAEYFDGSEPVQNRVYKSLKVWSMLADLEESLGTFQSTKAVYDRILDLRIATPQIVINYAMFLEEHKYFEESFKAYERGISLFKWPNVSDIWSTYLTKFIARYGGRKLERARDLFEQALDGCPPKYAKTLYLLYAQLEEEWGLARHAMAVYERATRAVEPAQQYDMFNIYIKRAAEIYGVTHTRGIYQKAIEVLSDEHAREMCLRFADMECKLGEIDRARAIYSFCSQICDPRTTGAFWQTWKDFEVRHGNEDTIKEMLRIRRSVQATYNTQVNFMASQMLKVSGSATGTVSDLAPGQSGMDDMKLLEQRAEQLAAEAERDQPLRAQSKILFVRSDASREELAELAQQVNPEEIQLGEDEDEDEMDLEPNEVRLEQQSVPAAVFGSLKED
UniProt O00401, whole entry, looked up: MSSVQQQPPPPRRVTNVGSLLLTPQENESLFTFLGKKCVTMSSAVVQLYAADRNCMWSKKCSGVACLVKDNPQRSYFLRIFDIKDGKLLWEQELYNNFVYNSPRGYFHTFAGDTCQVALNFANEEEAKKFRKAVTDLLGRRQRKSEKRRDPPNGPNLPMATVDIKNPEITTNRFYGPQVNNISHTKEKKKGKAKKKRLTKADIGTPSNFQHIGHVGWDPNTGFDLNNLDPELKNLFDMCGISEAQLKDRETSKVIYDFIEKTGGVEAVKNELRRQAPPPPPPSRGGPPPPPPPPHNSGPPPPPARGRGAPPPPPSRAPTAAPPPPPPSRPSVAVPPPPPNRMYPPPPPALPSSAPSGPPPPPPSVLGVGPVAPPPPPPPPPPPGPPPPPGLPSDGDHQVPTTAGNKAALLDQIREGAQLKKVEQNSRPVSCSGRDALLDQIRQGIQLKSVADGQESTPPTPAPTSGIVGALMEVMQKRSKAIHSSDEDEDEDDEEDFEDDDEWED
UniProt Q9HD64: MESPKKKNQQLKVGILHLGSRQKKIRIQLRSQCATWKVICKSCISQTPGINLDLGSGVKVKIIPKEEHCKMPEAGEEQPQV
UniProt Q9P2L0: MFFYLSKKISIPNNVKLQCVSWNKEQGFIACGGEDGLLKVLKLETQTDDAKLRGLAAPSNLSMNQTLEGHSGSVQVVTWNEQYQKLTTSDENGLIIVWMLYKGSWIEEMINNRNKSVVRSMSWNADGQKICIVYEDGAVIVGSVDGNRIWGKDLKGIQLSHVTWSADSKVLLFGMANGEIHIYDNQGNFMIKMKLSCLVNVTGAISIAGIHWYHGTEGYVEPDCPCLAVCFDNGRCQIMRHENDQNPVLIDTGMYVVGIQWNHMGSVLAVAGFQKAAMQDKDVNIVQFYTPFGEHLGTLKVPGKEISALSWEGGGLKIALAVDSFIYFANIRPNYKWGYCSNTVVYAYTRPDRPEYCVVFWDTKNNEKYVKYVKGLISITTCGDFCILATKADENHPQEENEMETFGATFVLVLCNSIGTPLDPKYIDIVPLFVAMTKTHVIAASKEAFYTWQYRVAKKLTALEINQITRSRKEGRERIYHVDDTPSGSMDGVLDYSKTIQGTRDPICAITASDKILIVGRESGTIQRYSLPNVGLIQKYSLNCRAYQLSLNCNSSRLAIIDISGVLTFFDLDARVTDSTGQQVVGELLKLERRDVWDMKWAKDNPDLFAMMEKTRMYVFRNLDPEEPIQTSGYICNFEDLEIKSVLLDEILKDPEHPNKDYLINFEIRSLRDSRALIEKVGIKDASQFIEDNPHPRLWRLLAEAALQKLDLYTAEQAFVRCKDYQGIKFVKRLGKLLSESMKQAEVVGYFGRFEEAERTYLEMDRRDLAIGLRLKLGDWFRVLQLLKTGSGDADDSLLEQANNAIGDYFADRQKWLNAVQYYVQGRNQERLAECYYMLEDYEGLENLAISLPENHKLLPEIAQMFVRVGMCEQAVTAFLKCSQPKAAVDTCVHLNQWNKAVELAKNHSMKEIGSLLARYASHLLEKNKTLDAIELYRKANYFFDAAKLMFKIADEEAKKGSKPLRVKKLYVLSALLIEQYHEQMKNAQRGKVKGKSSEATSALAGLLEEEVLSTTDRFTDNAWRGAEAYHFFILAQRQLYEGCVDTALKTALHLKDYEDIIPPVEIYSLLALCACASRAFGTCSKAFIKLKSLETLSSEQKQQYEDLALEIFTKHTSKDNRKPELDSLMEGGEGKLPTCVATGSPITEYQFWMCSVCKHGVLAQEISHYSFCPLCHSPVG

Columns and labels:
Assay in all cases: log2 fold change, soluble protein after heating vs DMSO (PISA); higher = thermal stabilisation; K562 lysate, 10 uM; active = over 0.2 and 3.5 SD of the protein, either way, in both replicates (recomputed)
erlotinib = compound: C#Cc1cccc(Nc2ncnc3cc(OCCOC)c(OCCOC)cc23)c1 [erlotinib]
In short: (§1)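 Soluble protein was defined as the supernatant remaining after 21,000xg for 90 min, following pooling of heated aliquots and adjustment to 0.5% NP-40 at 4°C. Before that, crude K562 extract at 1 mg/mL protein in PBS pH 7.4 with 1 mM MgCl2 was treated with 10 μM compound for 30 min and heated for 3 min across 48°C-58°C. Quantification used TMTpro 16plex LC-MS/MS with channel sums equalised, and values are log-two fold changes in thermal stability relative to solvent controls from duplicates.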

[1] = compound: C/C(=N\NC(=O)C1=CC(=CC=C1)S(=O)(=O)N2CCOCC2)/C3=C(C=CC(=C3)Cl)O
In short: as §1

[2] = compound: C1=CC(=CC=C1C2=NC3=C(N2)C=C(C=C3)C(=O)N)OC4=CC=C(C=C4)Cl
In short: as §1

[3] = compound: C1=CC2=C(C=CC(=C2)/C=C\3/C(=O)NC(=NCC4=CC=CS4)S3)N=C1
In short: as §1

[4] = compound: C1=CC2=NC=CN=C2C=C1/C=C/3\C(=O)NC(=O)S3
In short: as §1

[5] = compound: C1=CC=C(C=C1)C2=NC(=C(N2)C3=CC=NC=C3)C4=CC(=C(C=C4)Cl)O
In short: as §1

[6] = compound: C1=CC=C2C(=C1)C3=NNC4=CC=CC(=C43)C2=O
In short: as §1

[7] = compound: C1CCN(C1)C(=O)NC2=CC=CC(=C2)NC3=NC=C(C(=N3)NCCC4=CN=CN4)Br
In short: as §1

[8] = compound: C1CN(CCC1(CC2=CC=C(C=C2)Cl)N)C3=NC=NC4=C3C=CN4
In short: as §1

IRAK-1-4 Inhibitor I = compound: C1COCCN1CCN2C3=CC=CC=C3N=C2NC(=O)C4=CC(=CC=C4)[N+](=O)[O-] [IRAK-1-4 Inhibitor I]
In short: as §1

Measured: log2 fold change

WDR77 (UniProt Q9BQA1)
inactive: erlotinib -0.008 | [1] -0.073 | [2] -0.018 | [3] 0.025 | [4] -0.021 | [5] -0.009 | [6] 0.011 | [7] 0.004 | [8] 0.014 | IRAK-1-4 Inhibitor I 0.002

VLDLR (UniProt P98155)
inactive: erlotinib 0.064 | [2] 0.032 | [4] -0.021 | [5] 0.014 | IRAK-1-4 Inhibitor I 0.108

WDYHV1 (UniProt Q96HA8)
inactive: erlotinib 0.064 | [1] -0.295 | [2] -0.086 | [3] 0.068 | [5] 0.146 | [6] -0.111 | [7] -0.013 | [8] -0.064 | IRAK-1-4 Inhibitor I -0.116

WDR43 (UniProt Q15061)
inactive: erlotinib 0.02 | [1] 0.005 | [2] -0.005 | [3] -0.016 | [4] 0.003 | [5] -0.026 | [6] 0.016 | [7] -0.014 | [8] -0.039 | IRAK-1-4 Inhibitor I -0.006

VWDE (UniProt Q8N2E2)
inactive: erlotinib 0.104 | [1] 0.001 | [2] 0.031 | [3] -0.002 | [4] -0.038 | [5] -0.013 | [6] -0.048 | [7] -0.048 | [8] 0.027 | IRAK-1-4 Inhibitor I 0.02

WARS1 (UniProt G3V5U1)
inactive: [4] -0.037 | [7] 0.444 | [8] 0.211

WAC isoform 5 (UniProt Q9BTA9)
inactive: erlotinib -0.01 | [2] -0.156 | [5] 0.062 | IRAK-1-4 Inhibitor I 0.018

XBP1 isoform 2 (UniProt P17861)
inactive: erlotinib -0.045 | [2] -0.126 | [5] 0.074 | IRAK-1-4 Inhibitor I 0.063

WIPF2 (UniProt Q8TF74)
inactive: erlotinib -0.018 | [1] -0.021 | [2] 0.028 | [3] 0.022 | [4] -0.014 | [5] 0.016 | [6] 0.006 | [7] -0.018 | [8] 0.049 | IRAK-1-4 Inhibitor I -0.005

VRK3 (UniProt Q8IV63)
inactive: erlotinib 0.004 | [1] -0.019 | [2] -0.006 | [3] 0.063 | [4] 0.021 | [5] -0.008 | [6] 0.014 | [7] -0.024 | [8] -0.007 | IRAK-1-4 Inhibitor I -0.021

WDR76 (UniProt Q9H967)
inactive: [5] -0.074 | [7] 0 | [8] -0.028 | IRAK-1-4 Inhibitor I 0.107

VWA3B isoform 6 (UniProt Q502W6)
inactive: erlotinib -0.01 | [2] -0.009 | [4] -0.099 | [5] 0.037 | [7] -0.132 | [8] -0.035 | IRAK-1-4 Inhibitor I -0.076

WAS (UniProt P42768)
inactive: erlotinib 0.023 | [2] 0.074 | [4] -0.149 | [7] 0.007 | [8] 0.026

XIRP2 isoform 8 (UniProt A4UGR9)
inactive: [4] 0.059 | [5] 0.02 | IRAK-1-4 Inhibitor I 0.02

WDFY2 (UniProt Q96P53)
inactive: erlotinib 0 | [2] 0.166

WSB1 (UniProt Q9Y6I7)
inactive: [5] 0.037 | IRAK-1-4 Inhibitor I -0.093

WWOX (UniProt Q9NZC7)
inactive: [1] 0.017 | [3] 0.024 | [5] -0.079 | [6] 0.033 | IRAK-1-4 Inhibitor I 0.005

Retrieved one by one from above (2):
WSB1 (UniProt Q9Y6I7)
inactive: [5] 0.037 | IRAK-1-4 Inhibitor I -0.093

WWOX (UniProt Q9NZC7)
inactive: [1] 0.017 | [3] 0.024 | [5] -0.079 | [6] 0.033 | IRAK-1-4 Inhibitor I 0.005

More results follow:

XAB2 (UniProt Q9HCS7)
inactive: erlotinib 0.049 | [1] -0.088 | [2] -0.012 | [3] 0.076 | [4] 0.093 | [5] 0.012 | [6] -0.041 | [7] 0.071 | [8] -0.014 | IRAK-1-4 Inhibitor I 0.004

VPS72 (UniProt Q15906)
inactive: erlotinib 0.056 | [1] -0.036 | [2] 0.046 | [3] -0.057 | [5] -0.04 | [6] 0.052 | [7] 0.024 | [8] 0.059 | IRAK-1-4 Inhibitor I -0.008

XK (UniProt P51811)
inactive: erlotinib -0.114 | [2] 0.144 | [4] -0.004 | [5] -0.146 | [7] -0.012 | [8] 0 | IRAK-1-4 Inhibitor I 0.004

WDR62 isoform 4 (UniProt O43379)
inactive: erlotinib 0.017 | [1] -0.027 | [2] -0.018 | [3] -0.007 | [4] -0.012 | [5] 0.017 | [6] -0.052 | [7] 0.024 | [8] -0.008 | IRAK-1-4 Inhibitor I 0.011

VPS29 (UniProt Q9UBQ0)
inactive: erlotinib -0.101 | [1] -0.075 | [2] 0.096 | [3] 0.115 | [5] 0.089 | [6] -0.189 | IRAK-1-4 Inhibitor I 0.073

WARS1 (UniProt G3V277)
inactive: [1] 1.02 | [3] -0.06 | [4] -0.07 | [6] 0.021 | [7] -0.101 | [8] -0.044

WDFY1 (UniProt Q8IWB7)
inactive: erlotinib -0.016 | [1] -0.014 | [2] 0.073 | [3] -0.006 | [4] -0.013 | [5] -0.011 | [6] 0.019 | [7] -0.028 | [8] -0.016 | IRAK-1-4 Inhibitor I 0.023

WASL (UniProt O00401)
inactive: erlotinib -0.037 | [1] 0.097 | [2] 0.057 | [3] 0.001 | [4] -0.039 | [5] 0.013 | [6] -0.065 | [7] 0.012 | [8] -0.024 | IRAK-1-4 Inhibitor I 0.009

VPS33A (UniProt Q96AX1)
inactive: erlotinib 0.024 | [1] 0.005 | [2] 0.024 | [3] 0.035 | [4] 0.018 | [5] -0.006 | [6] -0.023 | [7] -0.025 | [8] 0.036 | IRAK-1-4 Inhibitor I 0.015

WDR19 (UniProt Q8NEZ3)
inactive: [4] 0.014

WIPI2 isoform 6 (UniProt Q9Y4P8)
inactive: [4] 0.079

WIPI1 (UniProt Q5MNZ9)
inactive: erlotinib -0.025 | [2] -0.006 | [4] -0.016 | [5] -0.027 | [7] 0.035 | [8] -0.013 | IRAK-1-4 Inhibitor I -0.007

WDR83 (UniProt Q9BRX9)
inactive: [1] -0.139 | [3] 0.051 | [4] 0.086 | [5] 0.009 | [6] 0.038 | IRAK-1-4 Inhibitor I -0.331

VPS16 (UniProt Q9H269)
inactive: erlotinib 0.059 | [1] 0.026 | [2] 0.048 | [3] 0.024 | [4] -0.03 | [5] 0.048 | [6] -0.075 | [7] 0.03 | [8] 0.023 | IRAK-1-4 Inhibitor I 0.025

XAGE1A (UniProt Q9HD64)
inactive: [1] 0.218 | [3] -0.185 | [4] -0.055 | [6] -0.138 | [7] -0.468 | [8] 0.102

VPS35, A0A1W2PP10
inactive: erlotinib -0.028 | [2] 0.15 | [4] -0.122

WDR46, A0A0G2JJL1
inactive: [1] -0.86 | [3] 0.107 | [4] 0.142 | [5] -0.041 | [6] -0.148 | IRAK-1-4 Inhibitor I -0.041

WDR35 (UniProt Q9P2L0)
inactive: [5] -0.05 | IRAK-1-4 Inhibitor I -0.264

WDR13, A0A087X091
inactive: [1] -0.212 | [3] 0.094 | [6] -0.041

WDR66 (UniProt Q8TBY9)
inactive: [1] 0.51 | [3] -0.06 | [5] -0.077 | [6] -0.095 | IRAK-1-4 Inhibitor I 0.074
